Assay results from PubChem BioAssay AID588497 (NMMLSC, 2011).
In all, about 360,000 compounds went through this assay and about 780 (0.22%) were called active. The shares of active, inactive and inconclusive entries below differ from those in the screen. Cut-off read from the data, not from the text of the source: active = inhibition above about 35% (passing the limit was not always enough); inconclusive = no clear call, values can overlap the other calls.

What follows are molecules tested on Botulinum neurotoxin type F light chain protease (Clostridium botulinum) (assay: BoNT/F light chain protease inhibitors, primary screen, biochemical, flow cytometry, MLPCN library (AID 588497; note: plate controls were buffer without enzyme for full effect and enzyme alone for no effect)). Conditions: Multiplex microsphere protease cleavage assay, at 10 µM, hits give high values.

SMILES	inhibition
BrC(=C\c1ccccc1)/C=N/Nc1ccc2nncn2n1	inconclusive: 5.6%
O=S(=O)(Nc1ccc(-c2nc3cccnc3s2)cc1)c1ccc(Cl)s1	inactive: -7%
COc1ccccc1NC(=O)CC1S/C(=N/N=C2\CCCc3ccccc32)NC1=O (stereo unspecified)	inactive: -3%
O=C1Nc2ccccc2C1Cc1ccccc1 (stereo unspecified)	inconclusive: 20.5%
COc1ccc(Cl)cc1C(=O)NNC(=O)C1CCCO1 (stereo unspecified)	inconclusive: -3.3%
O=S(=O)(CCNCc1ccco1)NC1CCCCC1	inactive: -3.6%
Cc1ccc(S(=O)(=O)N2CCN(Cc3nc4sc(C)c(C)c4c(=O)[nH]3)CC2)cc1	inactive: 6.7%
Cc1ccc(CC2CC(=O)N(c3cc(C)ccc3C)C2=O)cc1 (stereo unspecified)	inconclusive: -21.9%
COc1ccc2ccccc2c1/C=N/NC(=O)c1ccccc1F	inconclusive: -10.1%
COCCCn1c(C(=O)N2CCOCC2)cc2c(=O)n3ccccc3nc21	inactive: -2.5%
O=S(=O)(c1ccc(Cl)cc1)N1CCc2ccccc21	inconclusive: -8.5%
CN(C)C(C)(C)/C=C/C(O)(c1ccccc1)c1ccccc1	inconclusive: 27.2%
COc1cc(OC)cc(-c2nnc(NC(=O)CCS(=O)(=O)c3ccc(C)cc3)o2)c1	inconclusive: -1.6%
CCOC(=O)C(=CNNc1cccc(Cl)c1)C(=O)OCC	inconclusive: -5.8%
COc1cccc2[nH]c(C(=O)NCc3ccccc3)cc12	inconclusive: 8.7%
CCCC(=O)NC(c1ccc(Cl)cc1)c1ccc2cccnc2c1O (stereo unspecified)	inconclusive: -5%
CC(=O)c1ccccc1OCCOc1ccccc1C(C)=O	inconclusive: 26.7%
Cc1cc(C)cc(NC(=O)c2cc(C)n(Cc3cccs3)c2C)c1	inconclusive: 34.7%
Cn1c2ccccc2c(=O)c2c(=O)n(Cc3ccco3)c(-c3ccc(F)cc3)nc21	inconclusive: -36.1%
O=S(=O)(c1ccc(Cl)c(C(F)(F)F)c1)N1CCN(c2ccccn2)CC1	inactive: 3.7%
Cc1ccc(S(=O)(=O)Nc2cccc(C(=O)NCC(c3ccco3)N3CCCC3)c2)cc1F (stereo unspecified)	inconclusive: 0.9%
O=[N+]([O-])c1c(Nc2ccccc2O)cc(Cl)c2nonc12	inconclusive: -84.8%
NC(=O)c1cccc(-c2ccnc3c2CC(C(=O)Nc2cccc(Oc4ccccc4)c2)O3)c1 (stereo unspecified)	inactive: -10.9%
COc1ccccc1-c1csc(C(O)c2ccccc2)n1 (stereo unspecified)	inactive: -2.4%
CC(=O)c1ccc2c(c1)OCCOCCOc1ccc(C(C)=O)cc1OCCOCCO2	inconclusive: 10.2%
COP(=O)(Cc1ccc(C#N)o1)OC	inconclusive: -33.3%

Copied from the list.
Under inhibition, CCOC(=O)C(=CNNc1cccc(Cl)c1)C(=O)OCC is listed with inconclusive: -5.8%
Under inhibition, COc1ccc(Cl)cc1C(=O)NNC(=O)C1CCCO1 (stereo unspecified) is listed with inconclusive: -3.3%
